Measurements reported in PubChem BioAssay AID2685 (National Center for Advancing Translational Sciences (NCATS), 2010).
This is one part of the list. The main result of the screen is listed elsewhere. These columns were measured beside it and carry no call. Most of these compounds were active or inconclusive in the main read-out, so they are no random draw. Words in brackets tell the shape of the fitted curve; partial curves, single points and poor fits give uncertain potencies.

Test: qHTS Assay for Lipid Storage Modulators in Drosophila S3 Cells;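 for cell number change: cells counted by Cell Tracker Red CMTPX staining in the red channel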
Settings: BODIPY lipid droplet fluorescence, 18-24 h; for cell number change: measured here: cell count max response, cells fed with added oleic acid
In short: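 Drosophila S3 cells got compounds at several concentrations plus oleic acid (400 uM solution). Laser-scanning cytometry with 488 nm excitation read lipid droplets at 500-530 nm and cells at 575-640 nm. Percent activity was relative to 20 uM Triacsin C.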

[1] = measured here: cell number channel AC50, cells fed with added oleic acid
[2] = measured here: lipid fluorescence (Fed channel) AC50, cells fed with added oleic acid

| Compound | AC50 [1] | AC50 [2] | cell number change |
| --- | --- | --- | --- |
| COc1cccc(C(=O)NC2=NCCS2)c1OC | 1.3 µM [falling, partial curve] | 1.46 µM [falling, full curve] |  |
| O=C(O)CC(NC(=S)NCc1ccccc1)C(=O)O (configuration not stated) |  | 1.16 µM [falling, full curve] | -3.19% |
| OC(COCCC12CC3CC(CC(C3)C1)C2)CN1CCCCC1 (configuration not stated) |  |  | 4.05% |
| CC1(C)Cc2noc(N)c2C(C)(C)N1OC(=O)c1cccs1 | 0.461 µM [falling, full curve] | 1.46 µM [falling, partial curve] | 8.04% |
| COc1cccc(NC(=S)NC(C)c2ccc(OC)c(OC)c2)c1 (configuration not stated) |  |  | -34.3% |
| Cc1cc(=O)n2nc(N3CCC(C(=O)NCCc4ccc(Cl)cc4)CC3)sc2n1 |  | 29.1 µM [falling, single point] | 9.51% |
| Cc1ccc(NC(=O)CSCC(=O)Nc2ncc3c(n2)CC(c2ccco2)CC3=O)cc1 (configuration not stated) | 20.6 µM [rising, single point] |  | 109% |
| COc1ccc(CC(=O)OCC(=O)Nc2c(C)n(C)n(-c3ccccc3)c2=O)cc1OC |  | 13 µM [falling, partial curve, poor fit] | 12.8% |
| COc1ccc(NC(=O)CSc2nnc(-c3ccccc3Cl)n2Cc2ccco2)c(OC)c1 |  | 29.1 µM [falling, single point] |  |
| CC1=CC(C)(C)N(S(=O)(=O)c2ccc(F)cc2)c2ccccc21 | 0.164 µM [falling, full curve] |  | 24.1% |
| COc1ccc2c(c1)c1nc3ccccc3nc1n2Cc1ccc(OC)c(OC)c1 |  |  | 23.3% |
| O=C(/C=C/c1ccccc1)NNc1ccc(Cl)cc1 | 0.164 µM [falling, full curve, poor fit] |  | -22% |
| CCCCc1nnc2c(N(C)S(=O)(=O)c3ccccc3)nc3ccccc3n12 |  | 0.0731 µM [rising, full curve, poor fit] | -2.03% |
| O=c1[nH]c(C2CCN(S(=O)(=O)c3cccc(Cl)c3)CC2)nc2c1nnn2Cc1ccccc1 |  |  | 1.21% |
| CSc1nsc(SCC(=O)Nc2ccc(C(N)=O)cc2)n1 |  | 11.6 µM [falling, single point] |  |
| CCOCCCNC(=O)c1cn(C)c(=O)c2cc(OC)c(OC)cc12 |  | 1.84 µM [falling, partial curve] | 37.2% |
| Cc1cc(C(=O)NCc2cc(F)cc3c2OCOC3)nn1C | 0.0103 µM [rising, full curve, poor fit] | 0.92 µM [rising, full curve] | 35.6% |
| CC(C)C(c1nnnn1Cc1ccccc1)N1CCN(Cc2ccco2)CC1 (configuration not stated) |  | 3.66 µM [rising, single point] | -1.33% |
| Cc1cc(C)n2nc(CNS(=O)(=O)c3cccc([N+](=O)[O-])c3)nc2n1 |  | 29.1 µM [falling, single point] | 12.6% |
| CC1CCCN(C(=O)CSc2n[nH]c(-c3cccs3)n2)C1 (configuration not stated) | 18.4 µM [rising, single point] |  | 53.8% |
| CCOc1ccc(CCNC(=O)CSCc2ccc(C)cc2)cc1OCC |  | 9.2 µM [falling, partial curve] | -18.6% |
| C/C(=N\NC(=O)C1COc2ccccc2O1)c1ccc(N2CCOCC2)cc1 (configuration not stated) |  | 16.4 µM [rising, partial curve] | 27.8% |

| Compound | AC50 [1] | AC50 [2] | cell number change |
| --- | --- | --- | --- |
| CCS(=O)(=O)c1nc(S(=O)(=O)c2ccc(Cl)cc2)c(NCCCN2CCOCC2)s1 |  | 0.0651 µM [rising, full curve, poor fit] | 7.03% |
| CCN(CC)S(=O)(=O)c1ccc(N2CCOCC2)c(NS(=O)(=O)c2ccc(C(C)C)cc2)c1 |  | 23.1 µM [falling, single point] | 9.67% |
| Cn1ccnc1Sc1ccc(C(N)=O)cc1[N+](=O)[O-] |  |  | -3.26% |
| N/C(=N\OC(=O)COc1ccc(Br)cc1)c1cccnc1 | 9.2 µM [rising, partial curve] | 29.1 µM [rising, single point] | 38.3% |
| CCOc1ccccc1NC(=O)Cn1nnc(C(=O)Nc2ccc(C)cc2)c1N | 0.517 µM [rising, full curve] |  |  |
| COc1cc(Nc2ncnc(N)n2)cc(OC)c1 | 4.11 µM [falling, full curve, poor fit] | 3.66 µM [falling, full curve] | -34.4% |
| FC(F)(F)c1cccc(Oc2cc(C(F)(F)F)nc(-c3ccccn3)n2)c1 |  | 6.51 µM [rising, single point] | 6.32% |
| O=C(c1cccs1)N1CCCc2ccccc21 |  | 0.651 µM [falling, single point] | 1.06% |
| O=C(CSc1nc(=O)[nH]c2c1CCCC2)Nc1cc(C(F)(F)F)cc(C(F)(F)F)c1 | 0.13 µM [falling, full curve, poor fit] |  | -17.6% |
| CCOc1ccc(NC(=S)NN2C(C)CCCC2C)cc1 (configuration not stated) |  | 1.46 µM [falling, partial curve, poor fit] | -8.79% |
| Cc1cccc(C(=O)NC2CCN(CC(=O)N3CCOCC3)CC2)c1 |  |  | -8.24% |
| O=C(Nc1ccc(F)cc1)NC1(C(=O)NCc2ccco2)CCCCC1 |  | 0.0058 µM [falling, full curve, poor fit] | 1.33% |
| Cc1cc(C)n2nc(SCc3ccc(C#N)cc3)nc2n1 |  |  | 16.2% |
| CCSc1nc2c(cnn2-c2ccc(C)c(C)c2)c(=O)[nH]1 |  | 0.82 µM [falling, full curve] | 2.04% |
| O=C(c1ccco1)N1CCN(c2nnc(-c3ccccc3)c3ccccc23)CC1 | 2.59 µM [rising, partial curve] |  |  |
| CSc1nc(N(C)NC(=O)c2cccc(C)c2)c2ccccc2n1 |  | 0.164 µM [falling, full curve] | -20.2% |
| O=C(O)/C=C/C(=O)c1ccc2c(c1)NC(=O)CO2 |  |  | 6.4% |
| COc1cc(NC(=O)C2CSC3(C)CCC(=O)N23)c(OC)cc1Cl (configuration not stated) |  |  | 20.1% |
| NS(=O)(=O)c1ccc(N/N=C/c2cn(-c3ccccc3)nc2-c2cccs2)c([N+](=O)[O-])c1 |  |  | 31.7% |
| CCOC(=O)c1sc2nc(CN3CCCCC3)nc(Cl)c2c1C | 4.11 µM [rising, full curve, poor fit] |  | 31.3% |
| O=C(c1cc(COc2ccccc2)on1)N1CCCC(OCc2cccnc2)C1 (configuration not stated) |  | 0.82 µM [falling, full curve] |  |
| CCN(CC)S(=O)(=O)c1cccc2cc(C(=O)O)c(O)cc12 |  | 0.206 µM [falling, full curve, poor fit] | -0.512% |

| Compound | AC50 [1] | AC50 [2] | cell number change |
| --- | --- | --- | --- |
| CC(=O)NC(C)C12CC3CC(CC(C(=O)O)(C3)C1)C2 (configuration not stated) |  | 0.731 µM [falling, single point] | -18.3% |
| COc1cc(OC)cc(C(=O)Nc2nnc(NC(=S)Nc3ccccc3)s2)c1 | 6.51 µM [rising, single point] | 3.26 µM [rising, single point] | 2.57% |
| O=C(COc1ccccc1Cl)Nc1ccc(NC(=O)c2ccco2)cc1 |  |  | 6.05% |
| CCOC(=O)C(=CNc1ccccc1N1CCOCC1)C(=O)OCC |  | 6.51 µM [rising, single point] | 8.72% |
| COc1ccc(/C=N/NC(=O)C(=O)N2CCCCCC2)cc1 |  |  | -27.6% |
| CC(C)OCCCn1c(SCC(=O)N2CCc3ccccc32)nc2ccccc2c1=O | 29.1 µM [falling, partial curve, poor fit] | 2.06 µM [falling, partial curve] | -30.5% |
| COc1ccc(S(=O)(=O)N2CCOCC2)cc1NC(=O)Cc1cccs1 |  | 23.1 µM [rising, single point] | 8.31% |
| O=S(=O)(c1ccccc1)N(Cc1ccc(Cl)cc1)c1ccncc1 |  |  | 9.4% |
| CC(C)(OC(=O)c1ccc(C#N)cc1)c1cc2ccccc2c(=O)o1 | 0.13 µM [falling, full curve, poor fit] | 0.13 µM [falling, partial curve, poor fit] | 6.47% |
| O=C(O)CCn1ccnc1-c1ccccc1 | 3.66 µM [falling, full curve] | 3.66 µM [falling, full curve] | -31.6% |
| Cc1cc(C)c(C(=O)COC(=O)c2nn(C)c(=O)c3ccccc23)cc1C | 2.31 µM [rising, partial curve] | 2.59 µM [rising, partial curve, poor fit] | -2.55% |
| CC1CCC2(CC1)NC(=O)N(CC(=O)N1CCN(S(=O)(=O)c3ccccc3)CC1)C2=O (configuration not stated) |  | 0.116 µM [rising, full curve] | 25% |
| CNC(=O)Cn1c(=O)n(C)c2ccccc21 |  | 18.4 µM [falling, single point] | -26.7% |
| O=C1Nc2ccccc2C1=Nc1ccc(Br)cc1 |  |  | 15.2% |
| CCOC(=O)c1cc2c(ccn2C)n1CC(=O)N(C)C |  |  | -11.4% |
| COc1ccc(CCN2CCC(Nc3nc4ccccc4n3Cc3ccc(F)cc3)CC2)cc1 | 18.4 µM [falling, single point] | 25.9 µM [falling, single point] | -79% |
| COc1ccc(NC(=O)CSc2nc3ccccc3n2-c2ccccc2)c([N+](=O)[O-])c1 | 6.51 µM [rising, single point] |  | 9.52% |
| Cc1ccc2c(CC(=O)N(C)c3c(N)n(Cc4ccccc4)c(=O)[nH]c3=O)coc2c1 |  | 16.4 µM [falling, partial curve] | -15.5% |
| O=C(COc1ccccc1)NC(=S)Nc1cccc([N+](=O)[O-])c1 |  |  | 1.92% |
| C[C@@H]([C@@H](O)c1ccccc1)N(C)C(=O)C(N)Cc1ccccc1 (some centres not stated) |  | 11.6 µM [rising, single point] | 1.8% |

In the list so far, two have bromine.

| Compound | AC50 [1] | AC50 [2] | cell number change |
| --- | --- | --- | --- |
| N/C(=N\OC(=O)COc1ccc(Br)cc1)c1cccnc1 | 9.2 µM [rising, partial curve] | 29.1 µM [rising, single point] | 38.3% |
| O=C1Nc2ccccc2C1=Nc1ccc(Br)cc1 |  |  | 15.2% |
